Assay results as given in patent US20200157519A1.
These are yes or no findings as the source states them, for the method shown. Some results given as binding are weak or reduced against the parent protein; the word gives no strength.

Protein sequences, listed by entry. Tags and fused reporters are not part of them. Lines headed by an entry give the natural chain unless they say otherwise; changes in a name come on top.
UniProt P02671: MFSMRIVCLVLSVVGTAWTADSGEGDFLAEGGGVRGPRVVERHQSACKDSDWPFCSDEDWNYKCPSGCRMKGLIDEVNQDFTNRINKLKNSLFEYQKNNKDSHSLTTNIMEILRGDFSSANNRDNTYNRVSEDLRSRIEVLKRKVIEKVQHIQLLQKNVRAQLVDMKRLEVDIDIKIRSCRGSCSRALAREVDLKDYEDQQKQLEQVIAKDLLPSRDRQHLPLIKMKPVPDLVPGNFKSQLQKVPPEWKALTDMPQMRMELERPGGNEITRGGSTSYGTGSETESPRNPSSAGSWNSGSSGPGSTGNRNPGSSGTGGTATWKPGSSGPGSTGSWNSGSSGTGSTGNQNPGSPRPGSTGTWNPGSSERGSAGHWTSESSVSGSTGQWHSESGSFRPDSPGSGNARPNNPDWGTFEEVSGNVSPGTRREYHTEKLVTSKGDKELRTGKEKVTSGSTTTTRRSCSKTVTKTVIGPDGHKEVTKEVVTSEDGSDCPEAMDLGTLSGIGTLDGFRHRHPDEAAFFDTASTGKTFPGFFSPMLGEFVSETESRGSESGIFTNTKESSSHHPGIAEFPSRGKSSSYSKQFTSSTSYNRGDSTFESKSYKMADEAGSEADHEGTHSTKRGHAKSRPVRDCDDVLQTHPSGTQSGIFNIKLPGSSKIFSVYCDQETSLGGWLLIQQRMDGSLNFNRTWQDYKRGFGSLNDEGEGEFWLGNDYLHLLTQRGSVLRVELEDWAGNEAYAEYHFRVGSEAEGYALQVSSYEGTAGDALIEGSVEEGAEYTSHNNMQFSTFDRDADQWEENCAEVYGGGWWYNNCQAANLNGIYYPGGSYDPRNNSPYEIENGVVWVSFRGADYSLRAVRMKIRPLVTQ
UniProt P02675: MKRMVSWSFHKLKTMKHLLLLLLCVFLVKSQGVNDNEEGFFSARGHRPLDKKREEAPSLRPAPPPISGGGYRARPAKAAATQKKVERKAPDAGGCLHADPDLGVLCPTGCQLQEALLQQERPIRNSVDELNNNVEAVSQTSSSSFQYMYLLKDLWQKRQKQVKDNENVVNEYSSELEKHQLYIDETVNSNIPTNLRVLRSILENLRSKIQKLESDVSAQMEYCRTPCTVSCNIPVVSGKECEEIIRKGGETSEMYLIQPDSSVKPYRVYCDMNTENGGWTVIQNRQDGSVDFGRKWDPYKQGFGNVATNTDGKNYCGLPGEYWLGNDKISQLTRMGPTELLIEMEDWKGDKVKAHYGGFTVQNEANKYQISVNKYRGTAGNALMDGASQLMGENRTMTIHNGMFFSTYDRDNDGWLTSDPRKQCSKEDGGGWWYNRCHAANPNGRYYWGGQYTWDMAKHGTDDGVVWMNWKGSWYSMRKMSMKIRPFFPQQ
UniProt P02679: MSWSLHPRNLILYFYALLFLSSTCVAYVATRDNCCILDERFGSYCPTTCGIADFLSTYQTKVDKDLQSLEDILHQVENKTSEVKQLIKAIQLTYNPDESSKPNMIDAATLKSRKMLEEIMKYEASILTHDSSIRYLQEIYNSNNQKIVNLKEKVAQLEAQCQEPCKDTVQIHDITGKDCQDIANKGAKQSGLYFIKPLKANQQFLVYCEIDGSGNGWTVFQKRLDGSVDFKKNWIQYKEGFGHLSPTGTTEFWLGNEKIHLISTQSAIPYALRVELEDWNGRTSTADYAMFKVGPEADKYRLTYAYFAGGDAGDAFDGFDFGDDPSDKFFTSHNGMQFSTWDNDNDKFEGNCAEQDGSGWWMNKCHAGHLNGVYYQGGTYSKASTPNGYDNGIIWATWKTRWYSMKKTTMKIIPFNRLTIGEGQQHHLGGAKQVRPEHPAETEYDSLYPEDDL

Target: human fibrin (human fibrinogen coated on the plate and treated with thrombin) (human) (UniProt P02671+P02675+P02679)
Test: ELISA, HRP-conjugated polyclonal rabbit anti-reteplase antibody

- binding: binds
B1: recombinant (3D5 VL-(G4S)3-VH scFv α fibrin)-reteplase polypeptide (protein)
chain: DIQMTQSPSSLSASVGDRVTITCRASQDVSNNVAWYQQKPGKAPKLLIFWSPWLYSGVPSRFSGSGSGTDFTLTISSLQPEDFATYYCQQGWDSPVTFGQGTKVEIKRGSTSGSGKPGSGEGSTKGEVQLVESGGGLVQPGGSLRLSCAASGFTISDFGIHWVRQAPGKGLEWVASIWPSGGYTYYADSVKGRFTISADTSKNTAYLQMNSLRAEDTAVYYCARSWFYSWYDYWGQGTLVTVSSASGGGGSGGGGSGGGGSSYQGNSDCYFGNGSAYRGTHSLTESGASCLPWNSMILIGKVYTAQNPSAQALGLGKHNYCRNPDGDAKPWCHVLKNRRLTWEYCDVPSCSTCGLRQYSQPQFRIKGGLFADIASHPWQAAIFAKHRRSPGERFLCGGILISSCWILSAAHCFQERFPPHHLTVILGRTYRVVPGEEEQKFEVEKYIVHKEFDDDTYDNDIALLQLKSDSSRCAQESSVVRTVCLPPADLQLPDWTECELSGYGKHEALSPFYSERLKEAHVRLYPSSRCTSQHLLNRTVTDNMLCAGDTRSGGPQANLHDACQGDSGGPLVCLNDGRMTLVGIISWGLGCGQKDVPGVYTKVTNYLDWIRDNMRPA
